PubChem BioAssay AID1259308, NCATS | 2017
This is an unselected part of about 59,000 reagents. Of all reagents, about 1,510 (2.6%) are marked active. 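Calls use total luciferase alone and ignore viability, so some active siRNAs may act by altering cell number.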 The numbers tell different reagents against one gene apart. Not all columns of the deposit are shown.

- Screen: 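Candidate targets for better recombinant protein yield in mammalian cells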 (primary screen)
- Cells: human HEK293 embryonic kidney cells stably expressing firefly luciferase (HEK-CMV-Luc2-Hygro)
- Reagent: single siRNA against human genes, 0.8 pmol siRNA per well
- Timing: 72 h
- Read-out: 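Reporter luminescence and viable-cell signal on separate replicate plates, given as percent of non-targeting control and median/MAD z-scores, plus per-cell luciferase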
- Scale: total luciferase, z-score and total luciferase, % of control: higher = more reporter protein produced; luciferase per cell, z-score: higher = more reporter output per viable cell
- Call rule: 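An siRNA counts as active if its total luciferase robust z-score exceeds 3; genes with two or more such siRNAs out of three were retested with fresh siRNAs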
- Calls: active = raised luciferase; inactive = no rise

| total luciferase, z-score | total luciferase, % of control | luciferase per cell, z-score | activity call | gene | reagent no. |
| --- | --- | --- | --- | --- | --- |
| -0.706 | 67.9 | -0.597 | inactive | URI1 | 1 |
| -1.05 | 61 | -1.1 | inactive | URI1 | 2 |
| -0.0799 | 80.3 | -0.395 | inactive | URI1 | 3 |
| -1.06 | 60.8 | -0.708 | inactive | CHIT1 | 1 |
| -1.95 | 43.1 | -1.97 | inactive | CHIT1 | 2 |
| 1.33 | 108 | 0.564 | inactive | CHIT1 | 3 |
| 1.03 | 102 | 0.502 | inactive | SEC11C | 1 |
| -0.642 | 69.1 | -1.19 | inactive | SEC11C | 2 |
| 0.684 | 95.5 | 0.94 | inactive | SEC11C | 3 |
| -0.172 | 78.5 | -0.351 | inactive | GIMAP7 | 1 |
| -0.774 | 66.5 | -0.898 | inactive | GIMAP7 | 2 |
| -0.986 | 62.3 | -0.0308 | inactive | GIMAP7 | 3 |
| 0.22 | 86.3 | -0.0179 | inactive | TAS2R39 | 1 |
| -0.787 | 66.2 | -0.033 | inactive | TAS2R39 | 2 |
| -0.539 | 71.2 | -0.513 | inactive | TAS2R39 | 3 |

An excerpt from above, limited to “total luciferase, z-score”.
URI1 #3 = -0.0799
CHIT1 #1 = -1.06

Additional records follow:
| total luciferase, z-score | total luciferase, % of control | luciferase per cell, z-score | activity call | gene | reagent no. |
| --- | --- | --- | --- | --- | --- |
| -0.75 | 67 | -0.762 | inactive | KCNE1 | 1 |
| 1.13 | 104 | 0.885 | inactive | KCNE1 | 2 |
| 2.84 | 138 | 2.26 | inactive | KCNE1 | 3 |
| -0.565 | 70.7 | -0.598 | inactive | TF | 1 |
| 1.12 | 104 | 0.0333 | inactive | TF | 2 |
| -0.478 | 72.4 | -0.796 | inactive | TF | 3 |
| 0.221 | 86.3 | 2.92 | inactive | PIEZO1 | 1 |
| -1.87 | 44.8 | -0.768 | inactive | PIEZO1 | 2 |
| -1.45 | 53 | -1.68 | inactive | PIEZO1 | 3 |
